These are yes or no findings as the source states them, for the method shown. Each block holds one binder with its values, some of them ahead of it.
Experiments:
Test in all cases: condition: 1000 nM (only Kdeff-values < 1000 nM are shown); fluorescence cross-correlation spectroscopy (FCCS); in the cytoplasm of living yeast cells; first-named protein green (3myeGFP or 1myeGFP; eGFP for Don1), second red (3mCherry); self-interaction in diploid strains with one allele of each colour; apparent or effective KD (Kdeff) from single-cell measurements; only Kdeff values < 1000 nM are shown; values for …
Details in all cases: remark: other sources report otherwise
[1] = target: T1, Ent1 (S. cerevisiae), Q12518
T1 chain: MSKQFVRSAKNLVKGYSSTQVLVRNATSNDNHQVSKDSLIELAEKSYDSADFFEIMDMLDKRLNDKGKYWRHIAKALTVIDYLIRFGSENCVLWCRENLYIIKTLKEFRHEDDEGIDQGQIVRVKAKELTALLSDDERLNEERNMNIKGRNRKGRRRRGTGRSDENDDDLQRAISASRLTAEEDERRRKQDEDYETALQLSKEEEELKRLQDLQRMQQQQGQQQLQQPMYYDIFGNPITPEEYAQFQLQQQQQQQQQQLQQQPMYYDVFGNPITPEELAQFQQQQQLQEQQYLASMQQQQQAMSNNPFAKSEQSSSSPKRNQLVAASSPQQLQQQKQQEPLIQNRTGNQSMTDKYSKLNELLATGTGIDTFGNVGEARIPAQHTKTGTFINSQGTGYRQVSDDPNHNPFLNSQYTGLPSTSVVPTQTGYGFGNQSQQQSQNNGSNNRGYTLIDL

[2] = target: T2, Pan1 (S. cerevisiae), P32521
T2 chain: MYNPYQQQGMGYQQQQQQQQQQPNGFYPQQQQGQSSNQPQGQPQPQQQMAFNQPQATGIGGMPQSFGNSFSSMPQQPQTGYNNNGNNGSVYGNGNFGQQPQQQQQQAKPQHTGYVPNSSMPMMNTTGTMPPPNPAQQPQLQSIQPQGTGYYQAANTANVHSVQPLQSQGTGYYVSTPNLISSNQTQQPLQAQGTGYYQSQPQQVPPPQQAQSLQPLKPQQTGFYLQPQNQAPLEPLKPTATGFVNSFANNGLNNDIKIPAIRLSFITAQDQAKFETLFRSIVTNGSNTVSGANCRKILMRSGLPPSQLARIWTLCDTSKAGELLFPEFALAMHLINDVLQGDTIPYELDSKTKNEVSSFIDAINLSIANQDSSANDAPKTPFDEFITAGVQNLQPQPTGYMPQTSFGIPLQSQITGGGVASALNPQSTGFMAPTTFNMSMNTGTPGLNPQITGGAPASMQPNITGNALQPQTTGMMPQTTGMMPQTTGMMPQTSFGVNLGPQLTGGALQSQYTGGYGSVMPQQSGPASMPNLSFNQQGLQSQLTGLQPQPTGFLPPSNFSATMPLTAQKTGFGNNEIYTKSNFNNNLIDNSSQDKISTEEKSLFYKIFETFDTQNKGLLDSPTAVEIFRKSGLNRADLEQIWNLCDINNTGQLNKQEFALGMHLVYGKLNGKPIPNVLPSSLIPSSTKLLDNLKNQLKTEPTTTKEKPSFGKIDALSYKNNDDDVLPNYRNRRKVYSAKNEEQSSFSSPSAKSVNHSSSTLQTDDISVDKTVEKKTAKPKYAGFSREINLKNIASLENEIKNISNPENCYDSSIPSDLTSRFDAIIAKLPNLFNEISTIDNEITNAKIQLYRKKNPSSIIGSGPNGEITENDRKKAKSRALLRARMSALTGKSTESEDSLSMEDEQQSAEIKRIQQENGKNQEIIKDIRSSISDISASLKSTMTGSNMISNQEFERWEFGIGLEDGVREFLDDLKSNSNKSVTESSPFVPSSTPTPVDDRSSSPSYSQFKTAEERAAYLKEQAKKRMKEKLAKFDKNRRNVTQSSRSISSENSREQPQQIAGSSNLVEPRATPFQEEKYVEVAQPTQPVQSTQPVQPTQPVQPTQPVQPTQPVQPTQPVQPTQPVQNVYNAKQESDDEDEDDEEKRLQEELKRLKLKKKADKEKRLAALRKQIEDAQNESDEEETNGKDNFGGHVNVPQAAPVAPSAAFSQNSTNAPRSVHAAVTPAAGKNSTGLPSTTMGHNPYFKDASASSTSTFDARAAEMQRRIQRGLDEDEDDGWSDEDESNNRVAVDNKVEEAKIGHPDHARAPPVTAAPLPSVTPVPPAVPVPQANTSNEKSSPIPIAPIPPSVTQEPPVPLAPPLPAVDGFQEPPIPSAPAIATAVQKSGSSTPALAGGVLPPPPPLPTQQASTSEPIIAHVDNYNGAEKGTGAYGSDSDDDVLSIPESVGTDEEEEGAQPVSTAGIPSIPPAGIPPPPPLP

[3] = target: T3, Ede1 (S. cerevisiae), P34216
T3 chain: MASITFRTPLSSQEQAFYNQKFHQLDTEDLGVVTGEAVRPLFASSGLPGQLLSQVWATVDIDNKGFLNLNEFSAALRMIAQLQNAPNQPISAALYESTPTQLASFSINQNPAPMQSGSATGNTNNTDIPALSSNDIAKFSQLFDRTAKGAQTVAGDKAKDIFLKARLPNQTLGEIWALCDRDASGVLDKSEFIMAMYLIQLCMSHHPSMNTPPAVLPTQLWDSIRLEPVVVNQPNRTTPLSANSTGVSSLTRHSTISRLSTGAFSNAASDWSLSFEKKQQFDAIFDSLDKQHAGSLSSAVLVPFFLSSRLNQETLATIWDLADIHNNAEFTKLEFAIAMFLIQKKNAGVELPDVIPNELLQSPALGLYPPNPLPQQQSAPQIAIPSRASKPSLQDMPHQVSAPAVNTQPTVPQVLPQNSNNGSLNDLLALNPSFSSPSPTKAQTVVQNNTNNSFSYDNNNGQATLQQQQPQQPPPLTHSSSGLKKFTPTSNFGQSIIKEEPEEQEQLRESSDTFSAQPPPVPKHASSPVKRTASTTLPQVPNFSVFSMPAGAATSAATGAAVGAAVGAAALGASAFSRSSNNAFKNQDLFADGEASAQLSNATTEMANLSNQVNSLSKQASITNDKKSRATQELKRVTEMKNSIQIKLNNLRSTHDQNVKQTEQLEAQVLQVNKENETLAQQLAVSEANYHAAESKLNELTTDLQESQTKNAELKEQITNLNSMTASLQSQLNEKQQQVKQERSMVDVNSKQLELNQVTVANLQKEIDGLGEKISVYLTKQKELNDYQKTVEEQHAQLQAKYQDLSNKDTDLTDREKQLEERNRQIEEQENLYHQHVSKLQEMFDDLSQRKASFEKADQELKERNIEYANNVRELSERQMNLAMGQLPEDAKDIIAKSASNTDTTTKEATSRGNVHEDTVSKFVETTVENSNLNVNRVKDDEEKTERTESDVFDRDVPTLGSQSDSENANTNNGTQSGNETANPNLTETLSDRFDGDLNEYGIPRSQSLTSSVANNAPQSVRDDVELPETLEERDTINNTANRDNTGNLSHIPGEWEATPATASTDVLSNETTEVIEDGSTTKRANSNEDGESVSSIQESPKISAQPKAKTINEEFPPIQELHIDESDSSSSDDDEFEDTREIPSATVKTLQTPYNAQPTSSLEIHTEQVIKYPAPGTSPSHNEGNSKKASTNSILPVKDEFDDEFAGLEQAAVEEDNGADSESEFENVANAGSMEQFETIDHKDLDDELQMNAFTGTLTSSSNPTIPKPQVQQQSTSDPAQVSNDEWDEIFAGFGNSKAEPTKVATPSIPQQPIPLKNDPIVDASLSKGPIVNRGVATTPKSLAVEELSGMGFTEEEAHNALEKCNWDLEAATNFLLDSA

binding [1]: no binding
B1: Ent1, Q12518 1-454 (protein)
chain: T1 chain

binding [2]: no binding
B2: Yap1801, P38856 1-637 (protein)
chain: MTTYFKLVKGATKIKSAPPKQKYLDPILLGTSNEEDFYEIVKGLDSRINDTAWTIVYKSLLVVHLMIREGSKDVALRYYSRNLEFFDIENIRGSNGSASGDMRALDRYDNYLKVRCREFGKIKKDYVRDGYRTLKLNSGNYGSSRNKQHSINIALDHVESLEVQIQALIKNKYTQYDLSNELIIFGFKLLIQDLLALYNALNEGIITLLESFFELSHHNAERTLDLYKTFVDLTEHVVRYLKSGKTAGLKIPVIKHITTKLVRSLEEHLIEDDKTHNTFVPVDSSQGSAGAVVAKSTAQERLEQIREQKRILEAQLKNEQVAISPALTTVTAAQSYNPFGTDSSMHTNIPMAVANQTQQIANNPFVSQTQPQVMNTPTAHTEPANLNVPEYAAVQHTVNFNPVQDAGVSAQQTGYYSINNHLTPTFTGAGFGGYSVSQDTTAASNQQVSHSQTGSNNPFALHNAATIATGNPAHENVLNNPFSRPNFDEQNTNMPLQQQIISNPFQNQTYNQQQFQQQKMPLSSINSVMTTPTSMQGSMNIPQRFDKMEFQAHYTQNHLQQQQQQQQQQQQQQQQQPQQGYYVPATAGANPVTNITGTVQPQNFPFYPQQQPQPEQSQTQQPVLGNQYANNLNLIDM

binding [3]: no binding
B3: Apl1, P27351 1-700 (protein)
chain: MSDQKVFARYKANEIVTDLQHFGVKKFKSNITRRKNALRKIIANLVLGNYGEMSVLFSELLKFWQIEDDLEVKRICHEYIRVIGALKPQQAREALPFIMDDFKSRDEKLQIMALRTLVLVPVKELSDQAFDCIISLVNHKSPPEQVTRTAIYALLDLDEIDHERVLGLSSILHDIVKAQSSSPEVIVAALHTLYSIHEKNANMEPFRIPLELAFDMLELLPELNEWNKATVLEVLTTSVVPQHYLDTHEMIELALPYLQQVNTYVVLNSLKFIMYLLNYVDVIKETLAEKLSNSVIALLDKPPELQFLVLRNVILLLLSRESSLLRLDISYFFIEYNDPIYIKDTKLECLYLLANKETLPRILEELEQYATDIDIQMSRKSVRAIGNLAVKLDEDSVHDCVAVLLDLLEFGVDYVVQEIISVFRNILRKYPNNFKANVTELVKHTEVVQEPESKNAMIWIITQYSDVIPNYLELFRVFSSNMFSETLEVQFSILNSAIKFFIRSPTKETEELCMDLLKGCIDHENNPDLRDKTLMYWRLLSLTKTSRISNAITFESLKSVLDGELPLIEMNTKLDPTVLEELELNIGTIVSIYLKPVSHIFRLNKTKLLPQSPILNPNKDLLPVVGNSFPPTGANRDRQNSESQSSTKSRKTAMMDDYDKPAEKINQLKGKRKSSSNNPSKLSRKPSTLLRKLSMKRPFS
